At least one structure is not confirmed: it was looked up by name or label, or the drawing left a doubt.
System: RARβ expression
Assay: RARβ protein expression by Western analysis in cancer cells
Assay type: cell-based
Conditions: used together with RXR ligands

In the case of `CC1(COc2ccc(CC3SC(=O)NC3=O)cc2)CCCCC1` (stereo not shown) [ciglitazone], the “RARβ expression in combination with RXR ligands” value is reported as “strongly induces”.
